For assay [1], the target named is T1, cYFP-U1-70k (Arabidopsis thaliana) (UniProt Q42404).
T1 sequence: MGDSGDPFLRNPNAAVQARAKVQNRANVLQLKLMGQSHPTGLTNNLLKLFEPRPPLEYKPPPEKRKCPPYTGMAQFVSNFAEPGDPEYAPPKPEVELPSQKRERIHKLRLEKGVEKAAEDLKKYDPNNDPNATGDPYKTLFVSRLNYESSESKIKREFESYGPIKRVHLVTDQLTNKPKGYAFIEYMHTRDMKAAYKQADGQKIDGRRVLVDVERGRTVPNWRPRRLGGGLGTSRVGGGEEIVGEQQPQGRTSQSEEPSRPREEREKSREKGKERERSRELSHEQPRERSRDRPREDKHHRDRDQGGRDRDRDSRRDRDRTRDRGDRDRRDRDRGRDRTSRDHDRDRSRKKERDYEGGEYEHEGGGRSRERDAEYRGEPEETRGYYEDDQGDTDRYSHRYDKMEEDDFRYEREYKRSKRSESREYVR
Kind of assay: split reporter.

Assay [2] deals with T2, U1-70k (full-length, yeast two-hybrid fusion) (Arabidopsis thaliana) (UniProt Q42404).
T2 sequence: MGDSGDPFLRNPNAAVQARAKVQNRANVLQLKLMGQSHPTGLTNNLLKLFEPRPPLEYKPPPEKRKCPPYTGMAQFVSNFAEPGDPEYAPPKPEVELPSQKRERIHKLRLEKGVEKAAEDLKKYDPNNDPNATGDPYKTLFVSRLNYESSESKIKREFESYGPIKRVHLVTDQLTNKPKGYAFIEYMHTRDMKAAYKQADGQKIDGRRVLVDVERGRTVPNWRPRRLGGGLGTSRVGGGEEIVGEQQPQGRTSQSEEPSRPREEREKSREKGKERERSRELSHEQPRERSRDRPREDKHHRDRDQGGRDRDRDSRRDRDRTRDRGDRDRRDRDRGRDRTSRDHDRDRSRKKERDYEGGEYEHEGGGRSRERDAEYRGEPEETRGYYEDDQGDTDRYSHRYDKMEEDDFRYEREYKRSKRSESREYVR
Kind of assay: two-hybrid.

The next assay addresses Flag-4Myc-FVE. In words: co-IP.
Assay [3] concerns the target U1-70kΔ5aa (BiFC fusion) (Arabidopsis thaliana) (UniProt Q42404). Kind of assay: split reporter.
In assay [4] the target is N-terminal region of U1-70k (yeast two-hybrid fusion) (Arabidopsis thaliana). In words: two-hybrid.
In assay [5] the target is U1-70kΔ5aa (five-aa deleted U1-70k variant, yeast two-hybrid fusion) (Arabidopsis thaliana) (UniProt Q42404). In words: two-hybrid.

No constants are given. Whether binding was seen depends on the method and setting. For some of these results: A result given as binding can be weak or reduced; the word gives no strength. For some of these results: Sequences can lack the tags named with a protein. For some of these results: Binding seen in cells or lysates may run through a third protein.

These results are taken from article doi:10.1101/2025.04.22.650084.

nYFP-FVE: the binding result in assay [1] is “binds”.

For the molecule “FVE (Flowering locus VE, yeast two-hybrid fusion)”, the binding entry in assay [2] is “binds”.

On to DCL2 (yeast two-hybrid fusion), for which the binding entry in assay [2] is reported as “no binding”.

B1: U1-70k (endogenous) (protein, UniProt Q42404 1-427)
chain: MGDSGDPFLRNPNAAVQARAKVQNRANVLQLKLMGQSHPTGLTNNLLKLFEPRPPLEYKPPPEKRKCPPYTGMAQFVSNFAEPGDPEYAPPKPEVELPSQKRERIHKLRLEKGVEKAAEDLKKYDPNNDPNATGDPYKTLFVSRLNYESSESKIKREFESYGPIKRVHLVTDQLTNKPKGYAFIEYMHTRDMKAAYKQADGQKIDGRRVLVDVERGRTVPNWRPRRLGGGLGTSRVGGGEEIVGEQQPQGRTSQSEEPSRPREEREKSREKGKERERSRELSHEQPRERSRDRPREDKHHRDRDQGGRDRDRDSRRDRDRTRDRGDRDRRDRDRGRDRTSRDHDRDRSRKKERDYEGGEYEHEGGGRSRERDAEYRGEPEETRGYYEDDQGDTDRYSHRYDKMEEDDFRYEREYKRSKRSESREYVR
In the case of B1, the binding result with Flag-4Myc-FVE is on record as “binds”.

B2: nYFP-SGS3 (protein, UniProt Q9LDX1 1-625)
chain: MSSRAGPMSKEKNVQGGYRPEVEQLVQGLAGTRLASSQDDGGEWEVISKKNKNKPGNTSGKTWVSQNSNPPRAWGGQQQGRGSNVSGRGNNVSGRGNGNGRGIQANISGRGRALSRKYDNNFVAPPPVSRPPLEGGWNWQARGGSAQHTAVQEFPDVEDDVDNASEEENDSDALDDSDDDLASDDYDSDVSQKSHGSRKQNKWFKKFFGSLDSLSIEQINEPQRQWHCPACQNGPGAIDWYNLHPLLAHARTKGARRVKLHRELAEVLEKDLQMRGASVIPCGEIYGQWKGLGEDEKDYEIVWPPMVIIMNTRLDKDDNDKWLGMGNQELLEYFDKYEALRARHSYGPQGHRGMSVLMFESSATGYLEAERLHRELAEMGLDRIAWGQKRSMFSGGVRQLYGFLATKQDLDIFNQHSQGKTRLKFELKSYQEMVVKELRQISEDNQQLNYFKNKLSKQNKHAKVLEESLEIMSEKLRRTAEDNRIVRQRTKMQHEQNREEMDAHDRFFMDSIKQIHERRDAKEENFEMLQQQERAKVVGQQQQNINPSSNDDCRKRAEEVSSFIEFQEKEMEEFVEEREMLIKDQEKKMEDMKKRHHEEIFDLEKEFDEALEQLMYKHGLHNEDD
As to B2, the binding entry in assay [3] is “binds”.

B3: SGS3 (suppressor of gene silencing 3, yeast two-hybrid fusion) (protein, UniProt Q9LDX1 1-625)
chain: MSSRAGPMSKEKNVQGGYRPEVEQLVQGLAGTRLASSQDDGGEWEVISKKNKNKPGNTSGKTWVSQNSNPPRAWGGQQQGRGSNVSGRGNNVSGRGNGNGRGIQANISGRGRALSRKYDNNFVAPPPVSRPPLEGGWNWQARGGSAQHTAVQEFPDVEDDVDNASEEENDSDALDDSDDDLASDDYDSDVSQKSHGSRKQNKWFKKFFGSLDSLSIEQINEPQRQWHCPACQNGPGAIDWYNLHPLLAHARTKGARRVKLHRELAEVLEKDLQMRGASVIPCGEIYGQWKGLGEDEKDYEIVWPPMVIIMNTRLDKDDNDKWLGMGNQELLEYFDKYEALRARHSYGPQGHRGMSVLMFESSATGYLEAERLHRELAEMGLDRIAWGQKRSMFSGGVRQLYGFLATKQDLDIFNQHSQGKTRLKFELKSYQEMVVKELRQISEDNQQLNYFKNKLSKQNKHAKVLEESLEIMSEKLRRTAEDNRIVRQRTKMQHEQNREEMDAHDRFFMDSIKQIHERRDAKEENFEMLQQQERAKVVGQQQQNINPSSNDDCRKRAEEVSSFIEFQEKEMEEFVEEREMLIKDQEKKMEDMKKRHHEEIFDLEKEFDEALEQLMYKHGLHNEDD
B3: the binding result in assay [4] is listed as “no binding”; in assay [5] it was “binds”.
